“And” between values parts separate entries of the source, which are not always exact repeats. Equal values may be shown once. Hit rate of the full screen: of about 360,000 compounds, about 500 (0.14%) were called active. Inconclusive results, whose numbers are uncertain, are shown with a selection of clear calls.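 How the source made its calls: active means mean inhibition of at least 70% across replicates, with every replicate also reaching that level; inconclusive means mean inhibition reaches 70% but some replicates fall short; inactive means mean inhibition below 70%.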
Molecular target: Protein S100-A4 (Homo sapiens) (UniProt P26447)
Test: inhibitors of S100A4-myosin IIA peptide binding, primary screen, biochemical, fluorescence polarization, TAMRA-MyoIIA peptide (AID 652163)
Settings: at 10.7 µM, active compounds read high
Summary of the method: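 Test system: S100A4 monomer protein. Medium: HEPES buffer with Ca2+, pH 7.2. Reagent: fluorescent myosin IIA peptide, 5 nM. Compound dosing: single-point compound testing. Timing: 5 min between mix addition and reading. Benchmarks: DMSO neutral and TFP positive wells.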

By UniProt entry, the sequences of proteins in these tests, tags left out. Where a name states a change or a piece, a line headed by the entry shows the natural chain unless it says otherwise.
UniProt P26447: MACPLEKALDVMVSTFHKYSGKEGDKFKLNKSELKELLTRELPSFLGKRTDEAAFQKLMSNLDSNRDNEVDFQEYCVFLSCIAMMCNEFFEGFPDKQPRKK

SMILES | inhibition
CNC(=O)C[C@H]1CC[C@@H]2[C@@H](COc3ccc(NC(=O)c4cccc(F)c4)cc3C(=O)N2C)O1 | inconclusive: 92.9%
CS(=O)(=O)N1[C@H](CO)[C@@H](c2ccccc2-c2ccccc2F)[C@@H]1C#N | inconclusive: 71%
O=C1CCCn2cc(nn2)COCC2CCCN12 (centres undefined) | inconclusive: 132%
Cc1noc(C)c1NC(=O)Nc1cccc2c1O[C@@H](CN(C)C(=O)Nc1ccccc1)[C@H](C)CN([C@@H](C)CO)C2=O | inactive: -41.7%
CC(C)C#Cc1cnc2c(c1)C(=O)N([C@H](C)CO)C[C@@H](C)[C@H](CN(C)C(=O)CN1CCOCC1)O2 | inconclusive: 102%
COCC(=O)N1[C@H](CO)[C@H]2c3ccccc3N(C(=O)NC(C)C)C[C@H]21 | inactive: -0.508%
C/C(CC(=O)Nc1ccc(Cl)c(Cl)c1)=N\NC(=O)Cc1ccccc1 | inactive: -3.4%
CC(=O)N1CC(=O)N2[C@H](CO)[C@@H](c3ccc(-c4ccc(C#N)cc4)cc3)[C@H]2C1 | active: 129%
Cc1c(C(=O)OCC(=O)NCC2CCCO2)oc2ccccc12 (centres undefined) | inconclusive: 102%
C[C@H]1CN([C@@H](C)CO)C(=O)Cc2cc(NC(=O)Cc3cn(C)c4ccccc34)ccc2O[C@H]1CN(C)C | inconclusive: 118%
COC(=O)C1=C(NC(=O)c2ccccc2C)CCS1 | inconclusive: 73.8%
COc1cc(C=NN=c2sc3ccccc3n2C)ccc1OCCO | inconclusive: 77.7%
C[C@H]1CCCCO[C@H](CN(C)Cc2ccc(C(F)(F)F)cc2)[C@@H](C)CN([C@@H](C)CO)C(=O)c2cc(NS(=O)(=O)c3ccccc3)ccc2O1 | inconclusive: 81.9%
COc1ccc(CN(C)C[C@H]2OCCCC[C@@H](C)Oc3ccc(NC(=O)Nc4ccc5c(c4)OCO5)cc3C(=O)N([C@H](C)CO)C[C@H]2C)cc1 | active: 120%
Cc1cccc(OCc2nnc(SCC(=O)N3CCCC3)o2)c1 | inactive: -11.7%
CC12C=CC(=O)C=C1C(F)CC1C3CCC(O)(C(=O)CO)C3(C)CC(O)C12F (centres undefined) | inconclusive: 116%
COc1ccccc1CN1C[C@@H]2N[C@H](C1)C2c1ccc(-c2ccccc2OC)cc1 (some centres undefined) | inactive: 1.14% and inactive: -34%
O=c1c2ccccc2sn1-c1ccc(Cl)cc1Cl | inactive: -2.91%
O=C(C[C@@H]1CC[C@@H]2[C@H](COC[C@H](O)CN2C(=O)c2ccccc2F)O1)NCc1ccc(-c2ccccc2)cc1 | inconclusive: 71.7%
O=C(N[C@@H]1CC[C@@H](CCNS(=O)(=O)c2ccc(F)cc2)O[C@@H]1CO)C1CC1 | inconclusive: 87.7%
Cc1ccc(S(=O)(=O)N(C)C[C@@H]2Oc3ccc(N(C)C)cc3CC(=O)N([C@H](C)CO)C[C@@H]2C)cc1 | inactive: -10%
Cc1nnc(SCC(=O)Nc2ccc(Br)cc2)n(N)c1=O | inconclusive: 130%
O=C(C[C@@H]1CC[C@H]2[C@@H](COC[C@@H](O)CN2C(=O)c2ccncc2)O1)NCc1ccc(-c2ccccc2)cc1 | inconclusive: 70.9%

SMILES | inhibition
C[C@@H]1CN([C@@H](C)CO)C(=O)c2cccc(NC(=O)Nc3ccc(F)cc3)c2O[C@H]1CN(C)S(=O)(=O)c1cccs1 | inconclusive: 123%
COc1ccc(CC(=O)Nc2ccc(S(=O)(=O)N3CCCC3)cc2)c(OC)c1 | inconclusive: 81%
Cn1c(=O)c2sccc2n2c(CCCC(=O)N3CCN(c4ccccn4)CC3)nnc12 | active: 111%
C[C@@H]1CN([C@H](C)CO)C(=O)Cc2cc(NC(=O)c3ccncc3)ccc2O[C@H]1CN(C)Cc1ccc(Cl)c(Cl)c1 | inconclusive: 78.7%
Oc1cc(-c2cccnc2)cc2cccnc12 | inactive: 0.196%
CC(C)NC(=O)N(C)C[C@H]1OCc2cnnn2CCCC(=O)N([C@H](C)CO)C[C@H]1C | inconclusive: 106%
COc1cc(C(=O)NCC(c2ccco2)N2CCc3ccccc3C2)cc(OC)c1OC (centres undefined) | inconclusive: 120%
COc1ccc(C=C2C(=O)OC(C)(C)OC2=O)cc1OC | inactive: 4.4%
Cc1cccn2c(=O)c3cc(C(=O)NC4CCCCC4)c(=N)n(Cc4ccccc4)c3nc12 | inactive: 1.97%
C[C@@H]1CN([C@@H](C)CO)C(=O)c2cc(/C=C/c3ccccc3)cnc2O[C@H]1CN(C)S(=O)(=O)c1cccs1 | active: 94.4%
COc1cccc(NC(=O)N[C@@H]2C=C[C@@H](CC(=O)N3CCOCC3)O[C@@H]2CO)c1 | inconclusive: 77.1%
C[C@@H]1CN([C@H](C)CO)C(=O)c2cc(NS(=O)(=O)c3ccc(F)cc3)ccc2O[C@@H](C)CCCCO[C@@H]1CN(C)C(=O)NC1CCCCC1 | active: 120%
C[C@@H]1CCCCO[C@@H](CN(C)Cc2ccc(Cl)c(Cl)c2)[C@@H](C)CN([C@@H](C)CO)C(=O)c2cc(NS(=O)(=O)c3ccccc3)ccc2O1 | inactive: 1.92%
COc1ccc(S(=O)(=O)N2CCCCC2)cc1NC(=O)c1cccc(S(=O)(=O)N2CCOCC2)c1 | inactive: -0.539%
C[C@@H]1CN([C@@H](C)CO)C(=O)CCCn2nncc2CO[C@@H]1CN(C)C(=O)Nc1ccc(C(C)(C)C)cc1 | inconclusive: 72.7%
Cc1c(C(=O)N2CCOCC2)c(S(=O)(=O)Nc2ccc(OC(F)(F)F)cc2)c(C)n1C | inconclusive: 102%
O=C(C[C@H]1CC[C@H]2[C@@H](COC[C@@H](O)CN2S(=O)(=O)c2ccccc2)O1)NCc1ccc2c(c1)OCO2 | inconclusive: 84.3%
CS(=O)(=O)N1[C@@H]2Cn3c(ccc(C4=CCCCC4)c3=O)[C@H]1[C@@H](C(=O)N1CCOCC1)[C@@H]2CO | inconclusive: 74.3%
C[C@@H]1CN([C@@H](C)CO)C(=O)c2cc(NC(=O)c3ccccc3)ccc2O[C@@H](C)CCCCO[C@H]1CN(C)C(=O)Nc1cccc2ccccc12 | inconclusive: 77.5%
O=S(=O)(c1ccccc1)N1C[C@@H]2[C@H](c3ccccc31)[C@H](CO)N2Cc1ccccc1 | inconclusive: 93.1%
CCOc1ccc(-c2nonc2NC(=O)c2ccco2)cc1OCC | inconclusive: 74%
Cc1cc2c(cc1S(=O)(=O)N1CCN(c3cccc(C)c3C)CC1)OCCN2C | active: 153%
CC(C)NC(=O)N(C)C[C@H]1OCCCC[C@H](C)Oc2ccc(NS(=O)(=O)c3ccc(F)cc3)cc2C(=O)N([C@@H](C)CO)C[C@@H]1C | inactive: -1.59%

Entries from the list above containing a furan ring, fused or not, in the order listed:
SMILES | inhibition
Cc1c(C(=O)OCC(=O)NCC2CCCO2)oc2ccccc12 (centres undefined) | inconclusive: 102%
COc1cc(C(=O)NCC(c2ccco2)N2CCc3ccccc3C2)cc(OC)c1OC (centres undefined) | inconclusive: 120%
CCOc1ccc(-c2nonc2NC(=O)c2ccco2)cc1OCC | inconclusive: 74%

(next part)

SMILES | inhibition
CCN(CC)C(=O)C1=C(C)N(Cc2ccccc2)C(=O)C(CC(=O)NCc2ccco2)C1 (centres undefined) | inconclusive: 95.3%
O=C(COC(=O)c1cc(=O)[nH]c(=O)[nH]1)Nc1ccccc1F | inconclusive: 90.7%
C[C@@H]1CN([C@H](C)CO)C(=O)c2cccc(NC(=O)Nc3ccc(F)cc3)c2O[C@H]1CN(C)S(=O)(=O)c1cccs1 | inconclusive: 118%
COc1cc(C2NC(=O)NC(c3ccccc3)=C2C(C)=O)ccc1OCC#N (centres undefined) | inconclusive: 73.5%
CNC[C@H]1OCCCC[C@H](C)Oc2ccc(NS(=O)(=O)c3ccc(C)cc3)cc2C(=O)N([C@H](C)CO)C[C@H]1C | inconclusive: 73.5%
CC(=O)N1[C@H](CN(C(=O)c2cccc(F)c2)C(C)C)[C@@H](c2ccccc2)[C@@H]1CO | inconclusive: 76.5%
COc1ccc(C#Cc2ccc3c(c2)O[C@@H](CN(C)C(C)=O)[C@@H](C)CN([C@@H](C)CO)S3(=O)=O)cc1 | inactive: -2.91%
CCCNC(=O)N(C)C[C@H]1Oc2cc(C#CCN(C)C)ccc2S(=O)(=O)N([C@H](C)CO)C[C@@H]1C | inconclusive: 88.4%
CC(C)C[C@@H](COCc1cccc(Cl)c1)N1CCN(C(=O)c2ccc(C(F)(F)F)cc2)CCC1=O | inconclusive: 78.9%
CN=c1scc(-c2cccs2)n1/N=C/c1ccccc1O | inactive: 2.6%
Cc1oc2c(c(C)cc3oc(=O)c(CC(=O)N[C@@H](CC(C)C)C(=O)O)c(C)c32)c1C | inactive: -9%
CCNC(=O)C[C@@H]1CC[C@@H]2[C@@H](COc3ccc(NC(=O)Nc4c(C)noc4C)cc3C(=O)N2C)O1 | inactive: -3.38%
Cc1c(C(=O)NCc2ccccc2C(F)(F)F)sc(=O)n1Cc1ccc2c(c1)OCO2 | inconclusive: 73.4%
Cc1ccc(C(=O)NCc2ccc3c(c2)OCO3)o1 | inactive: -4.87%
O=C(C1=C[C@@H](c2ccccc2)C[C@@H](OCCCCO)O1)N1CCOCC1 | inconclusive: 77.3%
C[C@@H]1CN([C@H](C)CO)C(=O)c2cc(C3=CCCCC3)cnc2O[C@H]1CN(C)C(=O)NC1CCCC1 | inconclusive: 108%
COc1ccc(NC(=O)N(C)C[C@H]2OCCCC[C@@H](C)Oc3ccc(NC(=O)CCC(F)(F)F)cc3C(=O)N([C@H](C)CO)C[C@H]2C)cc1 | inconclusive: 72.8%
O=C(Cn1ccccc1=O)NCc1ccc(F)cc1 | inconclusive: 103%
C[C@@H]1CN([C@@H](C)CO)C(=O)c2cc(-c3cncnc3)cnc2O[C@H]1CN(C)C(=O)Cc1cccnc1 | inconclusive: 88.3%
Cc1ccc(N2C3=C(C(=O)CC(C)(C)C3)C(c3cn(C)nc3C)C3=C2CC(C)(C)CC3=O)cc1 | active: 112%
C[C@@H]1CN([C@H](C)CO)C(=O)c2cc(NC(=O)C3CCCCC3)ccc2O[C@@H](C)CCCCO[C@H]1CN(C)S(=O)(=O)c1cn(C)cn1 | inconclusive: 99.5%
Cc1ccc(OCC(=O)Nc2c(C)ccc3nsnc23)cc1 | inactive: -6.45%
C=CCN(Cc1nc(-c2ccc(OC)cc2)no1)C(=O)c1ccc2c(c1)OCO2 | inactive: -15.8%

Quoted from the results shown for reference:
SMILES | inhibition
CS(=O)(=O)N1[C@H](CO)[C@@H](c2ccccc2-c2ccccc2F)[C@@H]1C#N | inconclusive: 71%
O=C1CCCn2cc(nn2)COCC2CCCN12 (centres undefined) | inconclusive: 132%
